Results are given in words; binding and its absence hold for the method and conditions named. Binding seen in cells or lysates may run through a third protein. For some assays here: A result given as binding can be weak or reduced; the word gives no strength. For some assays here: Tags and fused reporters may be left off the sequences shown.
What was measured:
GST–KHC(815-955) (rat) = GST–KHC(815-955) (rat) (UniProt P56536); assay: pull-down; GST–KHC tail fusion (0.25 nmol) on glutathione–Sepharose beads incubated 1.5 h with 293T cell extract expressing GFP fusion proteins; 25 mM HEPES pH 7.5, 150 mM NaCl, 0.1% NP-40, Triton X-100; western blot; only the target purified
GST–SKIP(1-310) = target: T1, GST–SKIP(1-310) (UniProt Q8IWE5); assay: pull-down; GST–SKIP(1-310) on glutathione beads incubated with extracts of 293T cells expressing KHC (mCit- or HA-tagged) alone, without KLC2; western blot; only the target purified
T1 sequence: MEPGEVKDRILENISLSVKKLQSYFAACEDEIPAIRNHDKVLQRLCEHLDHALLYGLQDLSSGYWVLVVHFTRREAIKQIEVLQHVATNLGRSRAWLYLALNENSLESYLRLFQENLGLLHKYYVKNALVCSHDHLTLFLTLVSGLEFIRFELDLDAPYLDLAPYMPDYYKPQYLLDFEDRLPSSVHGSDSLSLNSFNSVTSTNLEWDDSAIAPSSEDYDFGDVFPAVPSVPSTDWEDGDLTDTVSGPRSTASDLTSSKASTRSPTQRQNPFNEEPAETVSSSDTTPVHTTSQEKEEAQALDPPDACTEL

The chains behind the UniProt entries cited, without tags or fusion partners. Where a name states a change or a piece, a line headed by the entry shows the natural chain unless it says otherwise. Residues count along the entry.
UniProt P56536, residues 815-955: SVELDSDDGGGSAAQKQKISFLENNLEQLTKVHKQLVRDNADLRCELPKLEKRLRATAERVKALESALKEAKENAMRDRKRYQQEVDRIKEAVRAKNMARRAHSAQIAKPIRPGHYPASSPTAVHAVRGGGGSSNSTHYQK
UniProt O94985: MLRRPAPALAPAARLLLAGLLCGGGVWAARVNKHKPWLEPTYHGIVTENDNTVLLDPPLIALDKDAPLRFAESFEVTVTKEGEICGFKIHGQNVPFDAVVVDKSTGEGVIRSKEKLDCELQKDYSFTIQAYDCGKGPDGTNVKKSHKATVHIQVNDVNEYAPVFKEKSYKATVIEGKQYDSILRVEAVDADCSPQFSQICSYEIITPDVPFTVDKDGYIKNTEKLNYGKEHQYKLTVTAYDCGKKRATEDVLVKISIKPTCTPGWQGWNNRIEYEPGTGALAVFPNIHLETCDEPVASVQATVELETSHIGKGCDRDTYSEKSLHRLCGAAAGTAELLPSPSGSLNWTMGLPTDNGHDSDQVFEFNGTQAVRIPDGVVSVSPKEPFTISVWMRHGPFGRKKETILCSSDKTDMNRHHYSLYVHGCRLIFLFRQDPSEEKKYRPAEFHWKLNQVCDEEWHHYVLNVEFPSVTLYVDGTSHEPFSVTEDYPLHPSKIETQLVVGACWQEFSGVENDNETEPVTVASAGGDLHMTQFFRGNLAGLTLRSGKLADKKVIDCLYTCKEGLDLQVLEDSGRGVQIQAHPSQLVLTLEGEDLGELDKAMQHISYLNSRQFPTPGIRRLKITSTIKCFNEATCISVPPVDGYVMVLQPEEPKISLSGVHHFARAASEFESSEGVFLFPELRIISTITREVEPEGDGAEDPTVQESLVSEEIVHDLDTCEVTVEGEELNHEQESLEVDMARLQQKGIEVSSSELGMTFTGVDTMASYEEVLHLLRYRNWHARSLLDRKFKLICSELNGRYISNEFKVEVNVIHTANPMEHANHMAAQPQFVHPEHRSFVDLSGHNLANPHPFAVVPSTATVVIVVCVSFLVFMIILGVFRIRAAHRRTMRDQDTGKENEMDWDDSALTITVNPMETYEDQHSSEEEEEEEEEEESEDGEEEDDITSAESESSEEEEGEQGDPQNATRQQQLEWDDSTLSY

Row | Substance | binding (GST–KHC(815-955) (rat)) | binding (GST–SKIP(1-310))
1 | GFP–CSTN1(879-971) (from UniProt O94985) (domain or fragment) | no binding | –
2 | HA–KHC IAKmut (from UniProt P56536) | – | binds
